The results in this text go back to PubChem BioAssay AID1508600 (Functional Genomics Laboratory (NCATS/FGL), 2020).

Among all 53,000 sequences or so, about 3,700 (7%) were called active.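 Rule for the calls: active = gene knockdowns whose robust z-score for IL-1 alpha signal is at least 2 or at most -2, so actives lie on both sides; inactive = the rest.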 The list shows a part of the results.

The nature of the assay: Components of the Cytosolic LPS Sensing Pathway: Gene Identification via Genome-wide siRNA Screen.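 Note: robust z of the log signal after scaling to non-targeting control siRNA wells of the plate.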 To be noted: RAW264.7 macrophages, IL-1a HTRF, actives lie on both sides, screened at 100 nM (by protocol), cells primed 5 h with Pam3CSK4 first. The essentials:
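Three distinct siRNAs per gene were tested singly at 100 nM in RAW264.7 macrophages. Following Pam3CSK4 priming and 24 hour LipidA transfection, IL-1a secretion was read by HTRF.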
Background: In TR-FRET formats the signal depends on donor and acceptor labels being close together.
Take GCCGUGAUGUUGUCACUGATT against Ppp2r5d: the z-score is inactive: 0.642. For CCAUCGUUGUUUCUUACACTT against Olfr922 the value was inactive: 0.903. For the sequence GGCUAAGAUAAGAAAUGCUTT against Mllt11, the z-score was inactive: -1.38. Under GCAACCUUGACGUAAAUGUTT against Bsg stands inactive: -0.0185; under GGGAGCUCCAUUUAAAUUATT against Cnot6, inactive: -0.516. Under CCUCAAUGACCUUAAAGAATT against Sh3glb1 stands inactive: -0.939.

On to CACCCUUCUCUGAUUGUCUTT against Lce3b, for which the z-score is inactive: 1.62. Under GCAGCAGGAAGGAUCAUUCTT against Ly6h stands inactive: -0.0488; under GGAUCUCAAAGAUACAGGATT against Mcpt1, inactive: 0.375; under CCUCUUUCGACAAGAGCUCTT against Atp1a3, inactive: 0.904. Take CCAAUGUGGUCAAGGUAAUTT against AI987944: the z-score was inactive: 0.696. With GGUGGGAUGAUCAUAAGUUTT against Ppnr, the z-score was inactive: -0.0428. For GGAAGCUCUUAAAAGGUUGTT against Hdhd2 the value was inactive: 0.226; for CCUGUAUCCGUGACUUUUGTT against Skor1, inactive: -0.358; for CGACAUCAGUUAAAAACGATT against Aebp2, inactive: -0.0636. For GCACAUAUAAAGUUGGAAATT against Ehbp1 the value was inactive: 1.06. Take GGCAAUCGCUUUGAGCCAUTT against Hnrnpm: the z-score was inactive: -1.09. For CGGACUAAGUUUCAAAUCGTT against Pcdha2 the value was inactive: 0.28; for GGAACUGUGUGACUACUUUTT against Necab2, inactive: 0.18; for CCGCGUGUUCCUUCUGAUUTT against S1pr3, inactive: 1.43.

In the case of GAUCCGUAUUACCUAUUGUTT against Bex1, the z-score is inactive: 0.603. For GGAGAAACAGAAGUAUUGATT against Nsa2 the value was inactive: -0.559; for CGAUGUGAUGAUUUAGAAGTT against Itgb1, inactive: -0.631; for GGAACCUAUGGAAGGCGUATT against Ino80b, active: 2.64.

On to GGACUAAGUGGACGGUUUATT against Tmx1, for which the z-score was inactive: -0.485.

Regarding GGAUUGUGAUUUUCAUUGATT against Lpar6, the z-score is inactive: 0.00533. Take AGAGGCUGGUAAGAAAAAATT against Olfr130: the z-score was inactive: -0.565.

For GCACUGAGCAAGAAUCCUGTT against Phb2, the z-score was inactive: 0.184. Take CCCAUUAAAUUCGAUAAGATT against C1qtnf9: the z-score is inactive: 0.0299. Consider GGGAAGCUAUCUGAAUGCGTT against Otoa, for which the z-score is inactive: 1.14. As for GGGACUUGUUGAGUUUAUATT against Ro60, the z-score was inactive: -0.276.

With GGGCAUCCUAUACAAGAAGTT against Sbf1, the z-score is inactive: -0.538. CCAUCUAGUGCUGUAUUUCTT against Rnf215: the z-score is inactive: 0.67. For GGAUACAAUCCUUUUGGAUTT against Dnajb1 the value was inactive: 0.205.

With GGACAUUGAGGACUAUGACTT against Grk1, the z-score is inactive: -1.38. For CCUAUGAAUUGGCUAUCAUTT against Slc47a1 the value was inactive: -0.246; for GAGUGUCCGAUAGACCGUUTT against Rbm4, inactive: -0.429. Turning to CCGAAGUCAAUGAAGCUCUTT against Gcsh, the z-score was active: -2.13.

For GGCGGAUCAGCUGUAUAAGTT against Pdha1, the z-score was inactive: 0.0277.

For GGAAACUUAAGCAAAUUCUTT against Gprc6a, the z-score is active: 3.11. For GUGACCACUCUGCCAAUUGTT against Olfr1255 the value was inactive: 1.24. Under GGUUGCAUUUUUGGAUUUATT against Fbxw2 stands inactive: 1.64; under CCAAUUGAGAAUAAACUCATT against Gnrhr, inactive: 1.79; under UACGGGCUGAACAUGUGCCTT against Rps29, inactive: 0.781. For GGAAGGCAUUGAAGCUGAATT against Armt1 the value was inactive: 0.447; for GCCAUAUUGAGGUGAAAGATT against Tnc, inactive: 0.775. For the sequence GCAAGAACAGCCCUUUCACTT against Ncf4, the z-score was inactive: -0.165. Regarding GGGUCCUAAACAGACCAGATT against Erv3, the z-score is inactive: -0.49. Regarding GGAACUGGGUCUUCUUCAUTT against Csnk1g3, the z-score is inactive: -0.206.

Consider GGAUAUGGGAAUGAAAGCATT against Nyap2, for which the z-score is active: -2.21.

In the case of GGGAGAUGGACAAGGUUACTT against Teddm2, the z-score was inactive: 0.697. Regarding GCUCUACCCAAUCAAGACCTT against Asb14, the z-score is inactive: 0.31. Take GCACAAAUCUGGUAAGUCATT against Gtf2h1: the z-score is inactive: 0.474. For GUGAGCAGUGCUUUGAUCUTT against Tff2 the value was inactive: -0.815; for CCCACCUUUGUCAACCAAATT against Pcdhga10, inactive: 0.0214; for GGUCAAUUGGAAAUAAGAATT against Mfsd14a, inactive: 0.0163. Under “GCCAACUACGUAUAUACAUTT against 4921511C20Rik” stands active: 2.41.

Turning to GCUUCUACGGCAAAUGAAUTT against Cdr2, the z-score was inactive: -0.427. Under GGAUUUUUAGUGUUUGACATT against Rab39 stands inactive: -1.52; under CCAAGUUGGCUUUAAUUGCTT against Abcb4, inactive: -0.158. On to CGCAUGCUGGUAAAACGGATT against Frem1, for which the z-score was inactive: -0.303. Under GGACUGAGAACCAGAUCAUTT against Rnaseh2c stands inactive: 0.851; under CCAGAUAAUAAUUUGGAUGTT against Dhx9, inactive: 0.0852; under GCCACUCAAUAAUCGCUGUTT against Car10, inactive: 0.42. Consider GCAGUGAAUGAACCGCUGUTT against Cd59a, for which the z-score is inactive: 0.864. Under CCCUGUGACCAGGAUUACATT against Stap2 stands inactive: -0.545; under CCUGAAGAUGAAUUAUUGCTT against Plg, inactive: 0.551; under GGGCAGAGGCAUUUCUGUATT against Psg23, inactive: 1.76. In the case of GGCAAUAGCUUUACCUAUGTT against Lzts2, the z-score was inactive: 0.669.

As for GCCAUAGGACCUAAAAGACTT against B3galnt2, the z-score is inactive: -1.6. In the case of GGUCUCUGAAGACAAAAAATT against Sema4d, the z-score was inactive: -0.252. Consider GGCCAUCGAACUCAAUCUCTT against Lrrc57, for which the z-score was inactive: 0.243.

Regarding GGGAAAAGAUCGACAAAGATT against Plk2, the z-score is inactive: -0.217. For GUGUUCAGCACCCUGGCAATT against Klra3 the value was inactive: 0.757; for GGCUCCUGUACCACCAAAATT against Wnt7b, inactive: -0.707; for GGGAAUUUCAGGCUAUAUUTT against Taf2, inactive: 1.13.

Take GCAUUCAUCAAAUUUACAGTT against Prrg4: the z-score was inactive: -0.67.

On to GGUCACUAUACCUGGUAGATT against Aire, for which the z-score was inactive: 1.26. For CCCAUUACCUGAUCAGUGGTT against Zc4h2 the value was inactive: 0.946; for GUCCCAGUACCUCAUUUUUTT against Vmn1r18, inactive: 1.65. Under GGUAAGAGAGGUUUUUUCCTT against Synpo2l stands inactive: 0.0886; under GGGAGAGUCAAACAGAGCATT against Dio1, inactive: -0.378; under GGUGAAGCCAAGAAUAGCATT against Abraxas1, inactive: -1.46. “GCAGCGGUGAACAAUAUAATT against 1700123K08Rik”: the z-score is inactive: 0.676. For GCCCAAGCUUUUAUCAAGATT against Frmd4b the value was inactive: 1.48; for GGAUGAUAUGGUAACCUGCTT against Trim68, inactive: -0.46; for GCACGUACGAAGCAAGUAATT against Nlrp1a, inactive: -0.0277. For GCCUCUGUCAAGUCUUGGATT against Ftl1 the value was active: -2.17. For GCUGUAUCUUGUGAACAGCTT against Rad9b the value was inactive: 0.393; for GGCCUACAUUUUAAUUCAGTT against Tmem132c, inactive: -0.167; for “GGGUAAUUUUUCACAACAGTT against 1110051M20Rik”, inactive: -0.645.

Turning to GGAAGCAGAUGACUGGGAATT against H2-T10, the z-score is inactive: 0.841.

As to CCUACUCACAGUAAUUAAGTT against Trpm8, the z-score was inactive: 0.398.

As for GGAGGAAUCGCACUAUAUUTT against Plppr4, the z-score was inactive: 0.956. For GGAGUUUAUGAAAUUCAACTT against Fcgrt, the z-score is inactive: 1.34.

In the case of GGACAUAUUCCUGAAUGGCTT against Bco2, the z-score was inactive: 0.663.

In the case of GGGACUCAUUGCUAACUCATT against Tnpo3, the z-score is inactive: 0.344. On to GGAAUUUUCUCGAUUUCACTT against Pde6b, for which the z-score is inactive: 1.13.

“CCCUGAUAGUUGCUUGUACTT against E330021D16Rik”: the z-score was inactive: 0.523. Under GUGUAUCUUAUGCAAUGAUTT against Olfr582 stands inactive: 0.504.

With GGGACUUGUCAGGUUUCUATT against Cptp, the z-score is inactive: 0.2. For CCAUUAAAACCACUAUCUGTT against Aftph the value was inactive: 0.467. With CCAGACGCGUAACUGCUACTT against Cox6b2, the z-score was active: 3.26. For the sequence GGUGUAAAGAAAACAUUCCTT against Ctcf, the z-score was inactive: -1.03.

For the sequence GCUUGCCAUCGACAACCUGTT against Bnip1, the z-score is inactive: 0.806.

For the sequence GGCGUAUACCGGGAAUCCUTT against Ndrg1, the z-score is inactive: -0.505. In the case of GGAAUGACAUUGCUACUGUTT against Zdhhc16, the z-score is inactive: -1.88.
